Some of the results follow.

The assay is described as follows: tubulin staining increase by stabilizing compounds – imaging, high-content imaging, primary screen (AID 2205).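 For toxicity: 0% = mean cell density of plate MIN control wells and 100% = no cells.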 As to conditions: HeLa tubulin immunostaining HCS, 24 h, at 10 µM; % Hoechst-high responders: measured here: nuclear condensation Hoechst responders, stronger effect = higher value, share of cells brighter than vehicle mean+2SD; toxicity: measured here: cytotoxicity by cell density.
`N/C(=N\O)c1c(N)no[n+]1[O-]` yielded a % Hoechst-high responders of 2.81% and a toxicity of 0.242%.

Molecule `O=C(OC1CN2CCC1CC2)C1c2ccccc2C=Cc2ccccc21` (stereo not given) displayed a % Hoechst-high responders of 2.38% and a toxicity of 11.9%.

Turning to `COc1ccc(C(=O)NCC2(N3CCOCC3)CCCCC2)cc1OC`, the % Hoechst-high responders was found to be 1.79% and the toxicity was 7.39%.

`c1ccc(CN2CCC(Nc3ccccc3)CC2)cc1` came in with a % Hoechst-high responders of 2.61% and a toxicity of 5.04%.

`N#Cc1ccc(C(=O)NCC2(N3CCCCC3)CCCCC2)cc1` came in with a % Hoechst-high responders of 1.18% and a toxicity of 5%.

For `CCN1CCC(Nc2cccc(F)c2)CC1`, the % Hoechst-high responders worked out at 2.61% and the toxicity is 7.38%.

With `CN(C)c1ccc(C(=O)NCC2(N3CCCCC3)CCCCC2)cc1`, the % Hoechst-high responders was 2.49% and the toxicity is 3.49%.

Take `CCC(CO)(C(=O)OC1CN2CCC1CC2)c1ccccc1` (stereo not given): the % Hoechst-high responders was 5.6% and the toxicity was found to be 6.65%.

The molecule `COc1cc(OC)cc(C(=O)NCC2(N3CCOCC3)CCCCC2)c1` showed a % Hoechst-high responders of 1.75% and a toxicity of 9.49%.

With `CCOc1ncccc1C(=O)NCC1(N2CCOCC2)CCCCC1`, the % Hoechst-high responders was found to be 2.71% and the toxicity turned out to be 10.4%.

Regarding `CC(C)(C)OC(=O)N1CCC(Nc2ccccc2)CC1`, the % Hoechst-high responders came to 2.5% and the toxicity amounted to 4.64%.

Take `O=C(NCC1(N2CCOCC2)CCCCC1)c1cc2ccccc2o1`: the % Hoechst-high responders turned out to be 3.53% and the toxicity came to 5.77%.

In turn, `CCOC(=O)N1CCC(Nc2ccc(OC)cc2)CC1` came in with a % Hoechst-high responders of 1.56% and a toxicity of 14.8%.

`O=C(OC1CN2CCC1CC2)C1c2ccccc2Oc2ccccc21` (stereo not given) had a % Hoechst-high responders of 1.05% and a toxicity of 5.18%.

For the molecule `COc1ccc(C(=O)NCC2(N3CCCCC3)CCCCC2)c(OC)c1OC`, the % Hoechst-high responders was 1.09% and the toxicity was 4.73%.

For the molecule `COc1ccc(NC2CCN(CCc3ccccc3)CC2)c(OC)c1`, the % Hoechst-high responders is 1.46% and the toxicity is 6.72%.

Turning to `COc1ccc(NC2CCN(C(=O)OC(C)(C)C)CC2)cc1`, the % Hoechst-high responders is 2.8% and the toxicity stood at 7.5%.

Molecule `CN1CCN(CCOC(=O)C(O)(c2ccccc2)c2ccccc2)CC1` showed a % Hoechst-high responders of 2.04% and a toxicity of 13.5%.

With `O=C(NCC1(N2CCOCC2)CCCCC1)c1cc(=O)[nH]c2ccccc12`, the % Hoechst-high responders worked out at 2.03% and the toxicity is 6.08%.

For the molecule `O=C(NCC1(N2CCCCC2)CCCCC1)c1cccc([N+](=O)[O-])c1`, the % Hoechst-high responders was 1.49% and the toxicity was found to be 3.18%.

The molecule `N#CC1(Nc2ccccc2)CCN(CCc2ccccc2)CC1` registered a % Hoechst-high responders of 1.41% and a toxicity of 9.36%.

In turn, `CN1CCC(Nc2cccc(F)c2)CC1` showed a % Hoechst-high responders of 1.4% and a toxicity of 6%.

For `CN(C)c1cccc(C(=O)NCC2(N3CCCCC3)CCCCC2)c1`, the % Hoechst-high responders stood at 1.04% and the toxicity amounted to 21.5%.

`COc1ccc(CN(CCCl)CCCl)cc1Cl`: the % Hoechst-high responders was 1.85% and the toxicity was 7.03%.

With `CC(C)c1ccc(NC2CCN(C(=O)OC(C)(C)C)CC2)cc1`, the % Hoechst-high responders is 1.99% and the toxicity was 4.55%.

For the origin of these results see PubChem BioAssay AID2205 (University of Pittsburgh Molecular Library Screening Center, 2009).
